Series [1] in a line: general procedure: Fmoc solid-phase peptide synthesis; Fmoc-Gly-sulfamylbenzoyl-MBHA resin; 2-chlorotrityl chloride PS resin; HATU; DIC/HOBt. Particulars: TFA salt.
The nature of another series: peptide synthesis. Particulars: coupling step, TFA salt.
Series [2] can be described thus: general procedure: Fmoc solid-phase peptide synthesis; Fmoc-Gly-sulfamylbenzoyl-MBHA; HATU; DIC/HOBt. The settings on record: whole synthesis, scale 0.25 mmol, TFA salt.
The mark [3] stands for this setting: late stage modification step, HPLC, YMC C-18/C-4, UV 220 or 254 nm (area %).
Setting [4] is: whole synthesis, 220 nm, area %.

For part of these data: End groups of sequences in plain letters are not given here.

As for “Aminodioxaoctanoyl-Thr(OBnzl)-Lys(Z)Pro-Pro-Arg(NO2)Obzl (3)”, the step yield result is reported as “yield 82%” in series [1] (coupling step) and “yield 87%” in series [1] (late stage modification step).

Consider Cyclic disulfide CTKPPRC, for which the “final HPLC purity” value in series [1] (oxidative folding step, 220 nm) is listed as >99% (area %). Besides, the oxidative folding yield in series [1] (oxidative folding step) is listed as 75% yield.

Take “DPPE-Glutaroyl-Gly-Thr(Obzl)-Lys(Z)-Pro-Pro-Arg(NO2)Obzl”: the step yield in series [1] (lipidation step) came out at 73%. The “final HPLC purity” value in series [1] (lipidation step, UV 254 nm) is reported as 100%.

In the case of “DPPE-Glutaroyl-Gly-Thr-Lys-Pro-Pro-Arg-OH (DPPE-GLU-GTKPPR)”, in series [1] (late stage modification step), the step yield stood at 74%. Besides, in series [1] (late stage modification step, UV 220 nm), the “final HPLC purity” value was 100%.

For “DPPE-Glutaroyl-di(aminodioxaoctanoyl)-Thr-Lys-Pro-Pro-Arg-OH”, the step yield entry is “Yield , 39.5%” in series [1] (late stage modification step) and “yield 73%” in series [1] (lipidation step).

Take F-108-(OCH2COHNGTKPPR)2: in series [1] (late stage modification step), the step yield was found to be 77%.

Take “Fmoc-HN—CH2—CH2—O—CH2—CH2—O—CH2—CO-Thr(t-Bu)-Lys(Boc)-Arg(Pmc)-t-Bu”: the conjugation yield in series [1] (conjugation step) is on record as 65%.

As to Fmoc-Lys(Boc)-Pro-Pro-Arg(Pmc)-t-Bu, the step yield in “peptide synthesis” is on record as 100%.

For “Fmoc-Thr(t-Bu)-Lys(Boc)-Pro-Pro-Arg(Pmc)-t-Bu”, the step yield in series [1] (coupling step) is listed as 70%.

Turning to “Gly-Thr(Obzl)-Lys(Z)Pro-Pro-Arg(NO2)Obzl”, the step yield result in series [1] (coupling step) was “yield 86%”; in series [1] (late stage modification step), 94.5%. Also, the “crude HPLC purity” value in series [1] (setting [3]) was found to be 100%.

H2N-G-T(tBu)-k(Mtt)-Pro-Pro-R(Pmc)-OtBu: the step yield in series [1] (coupling step) worked out at 84%.

As to “H2N-T (tBu)-K (Mtt)-Pro-Pro-Arg (Pmc)-OtBu”, in series [1] (coupling step), the step yield is recorded as 90%.

With H-Lys(Boc)-Pro-Pro-Arg(Pmc)-t-Bu, the step yield in series [1] (late stage modification step) worked out at 89%.

Regarding “H-Thr(t-Bu)-Lys(Boc)-Pro-Pro-Arg(Pmc)-t-Bu”, in series [1] (late stage modification step), the step yield is on record as 34%.

Regarding Lys(Z)-Pro-Pro-Arg(NO2)Obzl, the “crude HPLC purity” value in series [1] (setting [3]) was determined as 95.7%. Also, the step yield in series [1] (late stage modification step) is on record as 95%.

Regarding “N-glutaroyl-Gly-Thr(Obzl)-Lys(Z)-Pro-Pro-Arg(NO2)Obzl”, in series [1] (late stage modification step), the step yield was determined as 95.6%. Also, the “crude HPLC purity” value in series [1] (late stage modification step, UV 254 nm) is 97.7%.

Take “TKPPR Tetramer Conjugated to oxa-PnAO Metal Chelating Group (BRU-363)”: in series [1] (conjugation step, 220 nm), the “final HPLC purity” value is listed as “Purity>98%”.

With TKPPR-K(RPPKT)-K[K(RPPKT)TKPPR]-G-Z-OG, in series [1] (setting [4]), the “final HPLC purity” value was over 98%. In addition, the isolated yield in series [1] (whole synthesis) is 15%.

On to TKPPR-OH, for which, in series [1] (late stage modification step), the step yield is listed as 84%.

Take Thr(Obzl)-Lys(Z)-Pro-Pro-Arg(NO2)Obzl: the step yield result is “yield 91%” in series [1] (coupling step) and 98% in series [1] (late stage modification step). Further, in series [1] (setting [3]), the “crude HPLC purity” value stood at 98.3%.

Turning to “Thr-Lys-Pro-Pro-Arg-Lys(Arg-Pro-Pro-Lys-Thr)-Gly-TTDA-OG”, the isolated yield in series [2] is given as 20%. In series [1] (setting [4]), the “final HPLC purity” value is given as over 99%.

Regarding “di(aminodioxaoctanoyl)-Thr(OBzl)-Lys(Z)Pro-Pro-Arg(NO2)OBzl (4)”, the step yield entry is given as “yield 79.5%” in series [1] (coupling step) and “yield 91%” in series [1] (late stage modification step).

The values are drawn from patent US20020147136A1 (priority 2000, published 2002).
